{"sequences": {"note": "Protein sequences, listed by entry. Tags and fused reporters are not part of them.", "UniProt Q0JBA9, entry or part of it": "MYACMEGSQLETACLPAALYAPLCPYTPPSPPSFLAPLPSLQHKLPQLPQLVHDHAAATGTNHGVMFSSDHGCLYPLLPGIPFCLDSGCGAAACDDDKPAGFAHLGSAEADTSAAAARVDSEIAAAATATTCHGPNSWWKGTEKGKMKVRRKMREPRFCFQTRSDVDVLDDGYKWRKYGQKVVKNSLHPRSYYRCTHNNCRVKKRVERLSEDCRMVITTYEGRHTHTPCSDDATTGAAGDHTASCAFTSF"}, "source": "paper PMC7819943", "about": "“Rice protein-binding microarrays: a tool to detect cis-acting elements near promoter regions in rice”", "note": "The list shows a part of the results.", "data": [{"target": "OsWRKY34 (Oryza sativa, UniProt Q0JBA9 1-250)", "experiment": "protein-binding microarray (RPBM); PBS, 2% BSA, 51.3 ng/ul salmon testes DNA, 50 uM zinc acetate, 200 nM TF, 25 C, 1 h; high values mean tight binding", "conditions": "protein: recombinant; tags: N-terminal polyhistidine and DsRed monomer fusion (pET32a); label: CyDye5-dUTP incorporated in the synthesized complementary strand; 3' TTTTT single-stranded linker to array surface; dsDNA, one strand shown", "outline": "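For the binding signal, per-feature fluorescence intensity was read in arbitrary units on an Axon 4000B scanner. Before scanning, a 2% BSA-blocked custom Agilent array made double-stranded with Cy5-dUTP was washed after 1 h at 25 °C with 200 nM protein and 50 µM zinc acetate. The proteins were Ni–NTA-purified transcription factors with N-terminal polyhistidine and DsRed fusions, expressed in E. coli BL21-CodonPlus.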", "values": [{"sequence": "TATTTGCCTATCCCTATCAATTATCATGTTTAAATTTTCACGGAGTCACCTAGTGCAG", "binding signal": "9230 fluorescence intensity (a.u.)"}, {"sequence": "CCGATCAACGTTTAATGTGACACCTATAAATTTCTCTTTTCGGAGTCACCTAGTGCAG", "binding signal": "9060 fluorescence intensity (a.u.)"}, {"sequence": "CCTCCGGCCTCCACCCGCCGTCGTCCGTCGCCGTTGCGCGCGGAGTCACCTAGTGCAG", "binding signal": "10000 fluorescence intensity (a.u.)"}, {"sequence": "CCCCTGACCTTTCTCACCTGTTGAATGTTATTATTTGGTACGGAGTCACCTAGTGCAG", "binding signal": "8120 fluorescence intensity (a.u.)"}, {"sequence": "CTCTTTGTTTTGGTCCTCATGTTTTTAAAATTTATGTGGACGGAGTCACCTAGTGCAG", "binding signal": "9990 fluorescence intensity (a.u.)"}, {"sequence": "CTGGAGGGAGGGAGCACGGGAGTGGGAGGGGAGGCGCCGACGGAGTCACCTAGTGCAG", "binding signal": "11300 fluorescence intensity (a.u.)"}, {"sequence": "ATTTTGATTTGCTCTCGGCTCTCTCGTTCGTGTGCACATCCGGAGTCACCTAGTGCAG", "binding signal": "8110 fluorescence intensity (a.u.)"}, {"sequence": "ATCGAACGTTTGACCGGATGTCTGAAGGGGTTTTTGGACACGGAGTCACCTAGTGCAG", "binding signal": "10000 fluorescence intensity (a.u.)"}, {"sequence": "CCAACGTGTCCACTCACGGCTTACACGTGCCACGCCCATCCGGAGTCACCTAGTGCAG", "binding signal": "8580 fluorescence intensity (a.u.)"}, {"sequence": "AAATAACCTAAGTTCACTATTGAAATGGCCTATTTTCTTACGGAGTCACCTAGTGCAG", "binding signal": "8590 fluorescence intensity (a.u.)"}, {"sequence": "CGTTGACTTTTTATCAAATGTTTGACCGTTCGTCTTATTTCGGAGTCACCTAGTGCAG", "binding signal": "28900 fluorescence intensity (a.u.)"}, {"sequence": "CATCGATGAACATTCAACAAATCTTCGGGGTGGGTTACACCGGAGTCACCTAGTGCAG", "binding signal": "8900 fluorescence intensity (a.u.)"}, {"sequence": "AATTCCTGGACCTTAACTCACACGCAATTCCATCCTCCCTCGGAGTCACCTAGTGCAG", "binding signal": "8620 fluorescence intensity (a.u.)"}, {"sequence": "CCGGACCAGCCCAACCATTTCGTCGAGCACCTCACGCACGCGGAGTCACCTAGTGCAG", "binding signal": "9520 fluorescence intensity (a.u.)"}, {"sequence": "TTGGGGAAGGTGGTGGCGCACATTGGATGGGGCAGGAGGGCGGAGTCACCTAGTGCAG", "binding signal": "9060 fluorescence intensity (a.u.)"}, {"sequence": "GCAACCTCATACTTGAGCCAACGCAACTGTCAAATCTAAACGGAGTCACCTAGTGCAG", "binding signal": "8160 fluorescence intensity (a.u.)"}, {"sequence": "TTTTTTAAACATGTTTGACCGTTCGTCTTATTCAAAAACTCGGAGTCACCTAGTGCAG", "binding signal": "9000 fluorescence intensity (a.u.)"}, {"sequence": "TTATTATTCTAAAAATATGTGCATTTATATTTTTACATATCGGAGTCACCTAGTGCAG", "binding signal": "8520 fluorescence intensity (a.u.)"}, {"sequence": "AACCTCACCTCTGACGGTTTCTACTTCCGGCCCGTCACATCGGAGTCACCTAGTGCAG", "binding signal": "9830 fluorescence intensity (a.u.)"}, {"sequence": "CTCGCGATTTCCATGCAAACTGTGTAATTAGTTTTTTTATCGGAGTCACCTAGTGCAG", "binding signal": "8720 fluorescence intensity (a.u.)"}, {"sequence": "GGGAGGGAGAGGAGGCGGAGGAGGAGGAGGTGGAGGAGTACGGAGTCACCTAGTGCAG", "binding signal": "8610 fluorescence intensity (a.u.)"}, {"sequence": "GGTGGTGTTGTTGGTGGTGCAGTTCTTGGAGTCACATGGTCGGAGTCACCTAGTGCAG", "binding signal": "10300 fluorescence intensity (a.u.)"}, {"sequence": "GCCTCGTCTTTTTCTTAGGTTTATGCTTATCAGCTAAAATCGGAGTCACCTAGTGCAG", "binding signal": "8620 fluorescence intensity (a.u.)"}, {"sequence": "TGCAGCGTTGGTCAGGGGCCTCTCCGTCTATCTGTTCCTACGGAGTCACCTAGTGCAG", "binding signal": "10900 fluorescence intensity (a.u.)"}, {"sequence": "ACTGTGTTTCTTTGGTTGTTCCTCTCATTTACGAATAGAACGGAGTCACCTAGTGCAG", "binding signal": "10300 fluorescence intensity (a.u.)"}, {"sequence": "CTTTCGGTGTCTCCTTCAATGTTTGGTGGTACTTTCTGTTCGGAGTCACCTAGTGCAG", "binding signal": "8950 fluorescence intensity (a.u.)"}, {"sequence": "ATGATGAACACGATCCCAGTGCTTAATGCGCTTTTTTTTTCGGAGTCACCTAGTGCAG", "binding signal": "8620 fluorescence intensity (a.u.)"}, {"sequence": "TACTCCAAAGCACCGTTAATACTACTACTTCTCTCACGAACGGAGTCACCTAGTGCAG", "binding signal": "9000 fluorescence intensity (a.u.)"}, {"sequence": "CCACACACGTAGCTTCTCGAATTCTCCGGCGACTCTCCTACGGAGTCACCTAGTGCAG", "binding signal": "10500 fluorescence intensity (a.u.)"}, {"sequence": "ACAGGTTTGTATGTACTAATATTTTTCATGCCTACATTTCCGGAGTCACCTAGTGCAG", "binding signal": "8180 fluorescence intensity (a.u.)"}, {"sequence": "GCCACCGTCCTGCTGCTTCCGCCGCATCCTCTCCCCGCCGCGGAGTCACCTAGTGCAG", "binding signal": "11400 fluorescence intensity (a.u.)"}, {"sequence": "CACCGCCACCGCCACCGCCACCGCCCGCACTCTCCGCTCGCGGAGTCACCTAGTGCAG", "binding signal": "8190 fluorescence intensity (a.u.)"}, {"sequence": "TATCGTATTGTGCTTTTGATTCGCGTTCTAATTACGTGCACGGAGTCACCTAGTGCAG", "binding signal": "8940 fluorescence intensity (a.u.)"}, {"sequence": "ACTATTTGGATATCCCATTCCAACGCCATTGCCCTCTGTTCGGAGTCACCTAGTGCAG", "binding signal": "8280 fluorescence intensity (a.u.)"}, {"sequence": "TCTTTTCGGTAGCTACTTTCTACATCTCTCTTATTTGGATCGGAGTCACCTAGTGCAG", "binding signal": "8480 fluorescence intensity (a.u.)"}, {"sequence": "GGTTAGAGATACATACATATTATACCTGATTCACCTCACTCGGAGTCACCTAGTGCAG", "binding signal": "8060 fluorescence intensity (a.u.)"}, {"sequence": "CGCCTCCACGGCGCCCACGCTCATCGCCACCATCCACGACCGGAGTCACCTAGTGCAG", "binding signal": "8610 fluorescence intensity (a.u.)"}, {"sequence": "TAGTTATTTATAGAGTTAGGGTGTGTATGTTGTACTTATACGGAGTCACCTAGTGCAG", "binding signal": "8430 fluorescence intensity (a.u.)"}, {"sequence": "AGCCCAAACCCCGCAGCCGACGCGCTTCCCCGTTGACGCCCGGAGTCACCTAGTGCAG", "binding signal": "8480 fluorescence intensity (a.u.)"}, {"sequence": "TTCGACTCTCGGTACCAGTTAGCATGCGAGTTTTTTTTGACGGAGTCACCTAGTGCAG", "binding signal": "11800 fluorescence intensity (a.u.)"}, {"sequence": "TTACCGTCCATCTGCGTCTGTCCTGATCCATATCCTCCATCGGAGTCACCTAGTGCAG", "binding signal": "8550 fluorescence intensity (a.u.)"}, {"sequence": "CTACTGTCCAGTGACTGACCGAGCCCTGCACACCCTACGTCGGAGTCACCTAGTGCAG", "binding signal": "9740 fluorescence intensity (a.u.)"}]}]}
